Reference: patent US20210299039A1, “COMPOSITIONS AND METHODS FOR TREATING OCULAR DISEASE BY CONTACT LENS MEDIATED DRUG DELIVERY” (EyeGate Pharmaceuticals, Inc., priority 2020, published 2021)

How the values were obtained:
[1] = 40, 20, 10, 5 mg/mL loading solution, Formulation 3
[2] = New Zealand White, rabbit, in vivo

**Q.** For C[C@@H]1C[C@H]2[C@@H]3CCC4=CC(=O)C=C[C@]4(C)[C@@]3(F)[C@@H](O)C[C@]2(C)[C@@]1(O)C(=O)COP(=O)(O)O [dexP, dexamethasone phosphate], which “amount loaded into CL material vs concentration of dexP in loading solution” value ([1]; FIG. 14) is on record?
**A.** The value was “linear relationship”.

**Q.** And the “amount released vs concentration of dexP in loading solution” value ([1]; release over 8 hours, FIG. 15)?
**A.** Its value is “linear relationship”.

**Q.** What about the “time course of drug concentrations in tissues” value [2] of the same compound?
**A.** Its value is “highest at the 2-hr timepoint and decreased over time”.
